Measurements reported in PubChem BioAssay AID743454 (Peter MacCallum Cancer Centre, 2014)

- Assay: 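Genes whose loss kills vorinostat-resistant colon cancer cells under vorinostat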 (primary screen)
- Cell system: human HCT116-VR colon cancer cells, selected for vorinostat resistance
- Knock-down reagent: siRNA pool against human genes, 40 nM siRNA pool
- Time to read-out: vorinostat for 24 h, read-out about 72 h after transfection
- Treatment: vorinostat at 2.5 µM final
- Detection: 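Cell viability by CellTiter-Fluor and caspase 3/7 activity by luminescence, each scaled to mock wells per plate, duplicates averaged, then robust z-scored over all plates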
- Direction: viability robust z-score: higher = more viable cells than screen typical; caspase robust z-score: higher = more caspase 3/7 activity than screen typical
- Hit rule: 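Hits are knock-downs in viability class RV1/RV2 or caspase class CA1/CA2, excluding ones that killed cells in the no-drug cell-count arm; hits then retested with single siRNAs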
This is one part, drawn at random, of about 18,000 reagents tested. 450 of them (2.5%) were called active. 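Single biological run; no consistent viability z cut-off exists, so the class columns, not z-scores, define the calls.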 Entries without a mark were called inactive.

| viability hit class | caspase hit class | viability robust z-score | caspase robust z-score | Target gene |
| --- | --- | --- | --- | --- |
| no change | no change | -2.21 | 0.03 | WDR89 (GeneID 112840) |
| no change | no change | 0.08 | 1.77 | PACS1 (GeneID 55690) |
| no change | no change | 0.74 | 0.08 | MOB3C (GeneID 148932) |
| no change | no change | -1.22 | 2.95 | HOXB13 (GeneID 10481) |
| no change | no change | 0.55 | -0.54 | HERPUD1 (GeneID 9709) |
| no change | no change | 1.66 | -0.48 | PRRX1 (GeneID 5396) |
| no change | no change | -1.64 | -0.69 | DTX2 (GeneID 113878) |
| no change | no change | -1.24 | 1.29 | FES (GeneID 2242) |
| no change | no change | 0 | -0.28 | CSRP3 (GeneID 8048) |
| no change (active) | CA1 (caspase activation) | -0.8 | 5.47 | MMP13 (GeneID 4322) |
| no change | no change | 0.68 | -0.66 | GXYLT2 (GeneID 727936) |
| no change | no change | 0.09 | 1.57 | PFKFB2 (GeneID 5208) |
| no change | no change | -0.82 | -1.35 | TMEM125 (GeneID 128218) |
| no change | no change | -1.3 | -1.02 | DECR1 (GeneID 1666) |
| no change | no change | 1.07 | -0.24 | PRDM10 (GeneID 56980) |
| no change | no change | -2.82 | 1.55 | OR56B4 (GeneID 196335) |
| no change | no change | 0.22 | 0.19 | KRTAP5-5 (GeneID 439915) |
| no change | no change | -3.34 | 4.11 | NDC80 (GeneID 10403) |
| no change | no change | 0.02 | -0.3 | LYPLAL1 (GeneID 127018) |
| no change | no change | 0.24 | -0.75 | PRAMEF3 (retired record) (GeneID 401940) |
| no change | no change | 0.88 | 0.11 | RANBP3 (GeneID 8498) |
| no change | no change | 0.41 | -0.25 | PGP (GeneID 283871) |
| no change | no change | 0.55 | -0.38 | CCNE2 (GeneID 9134) |
| no change | no change | -0.08 | -0.56 | MAPK6 (GeneID 5597) |
| no change | no change | 0.88 | 1.13 | TRPM8 (GeneID 79054) |

No new results follow: 2 of the entries above.
| viability hit class | caspase hit class | viability robust z-score | caspase robust z-score | Target gene |
| --- | --- | --- | --- | --- |
| no change | no change | 1.07 | -0.24 | PRDM10 (GeneID 56980) |
| no change | no change | -2.82 | 1.55 | OR56B4 (GeneID 196335) |

The list goes on:
| viability hit class | caspase hit class | viability robust z-score | caspase robust z-score | Target gene |
| --- | --- | --- | --- | --- |
| no change | no change | -0.26 | -0.62 | PTBP1 (GeneID 5725) |
| no change | no change | 1.34 | 0.06 | PCDHB9 (GeneID 56127) |
| no change | no change | -0.08 | -0.18 | EXOSC4 (GeneID 54512) |
| no change | no change | 0.16 | 0.34 | TTC12 (GeneID 54970) |
| no change | no change | 0.24 | -0.28 | FANCI (GeneID 55215) |
| no change | no change | 0.97 | -0.74 | PCDHA5 (GeneID 56143) |
| no change | no change | -0.31 | -0.08 | WNT10A (GeneID 80326) |
| no change | no change | -1.03 | 0.76 | KCTD4 (GeneID 386618) |
| no change | no change | -0.18 | -0.57 | PDHA2 (GeneID 5161) |
| no change | no change | -1.91 | 1.69 | OXGR1 (GeneID 27199) |
| no change | no change | 0.34 | -0.44 | ZKSCAN4 (GeneID 387032) |
| no change | no change | 0.76 | 0.02 | PDZK1IP1 (GeneID 10158) |
| no change | no change | -1.88 | 0.4 | DMKN (GeneID 93099) |
| no change | no change | 1.02 | -0.12 | CSTPP1 (GeneID 79096) |
